Reference: PMC7413564, “Phase separation of Arabidopsis EMB1579 controls transcription, mRNA splicing, and development” (PLoS Biology, 2020)
These are yes or no findings as the source states them, for the method shown. Binding seen in cells or lysates may run through a third protein. Some results given as binding are weak or reduced against the parent protein; the word gives no strength. Sequences can lack the tags named with a protein.

T1: EMB1579-NLuc (Arabidopsis thaliana) (UniProt F4IS91)
T1 sequence: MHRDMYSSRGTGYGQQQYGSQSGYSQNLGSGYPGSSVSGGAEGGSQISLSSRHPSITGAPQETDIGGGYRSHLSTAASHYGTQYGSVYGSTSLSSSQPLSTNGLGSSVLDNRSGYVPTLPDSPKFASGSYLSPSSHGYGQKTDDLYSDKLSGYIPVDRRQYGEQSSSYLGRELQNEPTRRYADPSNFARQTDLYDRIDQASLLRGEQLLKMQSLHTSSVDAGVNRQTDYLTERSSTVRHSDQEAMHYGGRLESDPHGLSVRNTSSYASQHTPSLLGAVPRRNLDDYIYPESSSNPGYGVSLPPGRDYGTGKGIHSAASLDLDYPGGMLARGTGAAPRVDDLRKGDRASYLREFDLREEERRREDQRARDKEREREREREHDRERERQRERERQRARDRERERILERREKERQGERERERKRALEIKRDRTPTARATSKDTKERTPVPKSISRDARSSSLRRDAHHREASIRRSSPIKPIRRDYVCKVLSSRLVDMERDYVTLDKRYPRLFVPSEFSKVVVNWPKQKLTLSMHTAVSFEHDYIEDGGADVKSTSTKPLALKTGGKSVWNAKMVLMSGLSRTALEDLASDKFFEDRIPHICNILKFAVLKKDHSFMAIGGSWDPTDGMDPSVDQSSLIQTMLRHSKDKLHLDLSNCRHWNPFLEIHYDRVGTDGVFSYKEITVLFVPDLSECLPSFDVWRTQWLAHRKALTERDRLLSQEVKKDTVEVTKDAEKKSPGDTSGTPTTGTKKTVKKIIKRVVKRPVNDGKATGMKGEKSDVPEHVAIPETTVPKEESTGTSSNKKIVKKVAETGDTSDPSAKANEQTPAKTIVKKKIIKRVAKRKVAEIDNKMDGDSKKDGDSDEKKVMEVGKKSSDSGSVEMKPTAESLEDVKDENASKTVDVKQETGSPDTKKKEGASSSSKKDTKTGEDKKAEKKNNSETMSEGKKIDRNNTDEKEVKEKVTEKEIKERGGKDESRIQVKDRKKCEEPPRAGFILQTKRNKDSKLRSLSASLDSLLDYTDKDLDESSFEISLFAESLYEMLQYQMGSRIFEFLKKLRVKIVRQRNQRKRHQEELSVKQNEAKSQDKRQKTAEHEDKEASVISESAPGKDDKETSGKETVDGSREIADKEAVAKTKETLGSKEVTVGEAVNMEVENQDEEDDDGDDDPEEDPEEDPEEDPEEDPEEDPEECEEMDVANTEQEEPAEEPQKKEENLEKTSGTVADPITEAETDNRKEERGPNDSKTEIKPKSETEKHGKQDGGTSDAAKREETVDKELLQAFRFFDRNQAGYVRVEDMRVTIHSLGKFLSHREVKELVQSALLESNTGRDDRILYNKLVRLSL

B1: CLuc-U1-70K (protein, UniProt Q42404 1-427)
chain: MGDSGDPFLRNPNAAVQARAKVQNRANVLQLKLMGQSHPTGLTNNLLKLFEPRPPLEYKPPPEKRKCPPYTGMAQFVSNFAEPGDPEYAPPKPEVELPSQKRERIHKLRLEKGVEKAAEDLKKYDPNNDPNATGDPYKTLFVSRLNYESSESKIKREFESYGPIKRVHLVTDQLTNKPKGYAFIEYMHTRDMKAAYKQADGQKIDGRRVLVDVERGRTVPNWRPRRLGGGLGTSRVGGGEEIVGEQQPQGRTSQSEEPSRPREEREKSREKGKERERSRELSHEQPRERSRDRPREDKHHRDRDQGGRDRDRDSRRDRDRTRDRGDRDRRDRDRGRDRTSRDHDRDRSRKKERDYEGGEYEHEGGGRSRERDAEYRGEPEETRGYYEDDQGDTDRYSHRYDKMEEDDFRYEREYKRSKRSESREYVR
B2: CLuc-RZ-1C (protein, UniProt Q8RWN5 1-310)
chain: MAAKEGSRIFVGGLSPEVTDRDLERAFSRFGDILDCQIMLERDTGRSRGFGFITFADRRAMDESIREMHGRDFGDRVISVNRAEPKLGRDDGESHGSRGGRDSGYSIAGKGSFGGGGGGGGRVGEDECFKCGRVGHWARDCPSAGGGRGGPVGGFSSRASAYGGSDGRVDRYADRDRYVDRERYIDDRYDGAARYGARDRFDSREAYIPRDRYASDRYAAPADRFAGGDRYSRGSDRYPPGSYDKARSFERDIAPSAGSDRYGGGRAGGPIRGGGEEGRGFRSRAGAPYERPSRSGGGGAYPSSSTFDRY
B3: CLuc-EBP1 (protein, UniProt Q96327 1-392)
chain: MSSDDERDEKELSLTSPEVVTKYKSAAEIVNKALQVVLAECKPKAKIVDICEKGDSFIKEQTASMYKNSKKKIERGVAFPTCISVNNTVGHFSPLASDESVLEDGDMVKIDMGCHIDGFIALVGHTHVLQEGPLSGRKADVIAAANTAADVALRLVRPGKKNTDVTEAIQKVAAAYDCKIVEGVLSHQLKQHVIDGNKVVLSVSSPETTVDEVEFEENEVYAIDIVASTGDGKPKLLDEKQTTIYKKDESVNYQLKMKASRFIISEIKQNFPRMPFTARSLEEKRARLGLVECVNHGHLQPYPVLYEKPGDFVAQIKFTVLLMPNGSDRITSHTLQELPKKTIEDPEIKGWLALGIKKKKGGGKKKKAQKAGEKGEASTEAEPMDASSNAQE
B4: CLuc-RBP47C (protein, UniProt Q9SX79 1-432)
chain: MADVKIQSESESSDSHPVVDNQPPPPPPPPQQPAKEEENQPKTSPTPPPHWMRYPPTVIIPHQMMYAPPPFPPYHQYPNHHHLHHQSRGNKHQNAFNGENKTIWVGDLHHWMDEAYLNSSFASGDEREIVSVKVIRNKNNGLSEGYGFVEFESHDVADKVLREFNGTTMPNTDQPFRLNWASFSTGEKRLENNGPDLSIFVGDLSPDVSDNLLHETFSEKYPSVKAAKVVLDANTGRSKGYGFVRFGDENERTKAMTEMNGVKCSSRAMRIGPATPRKTNGYQQQGGYMPNGTLTRPEGDIMNTTIFVGGLDSSVTDEDLKQPFNEFGEIVSVKIPVGKGCGFVQFVNRPNAEEALEKLNGTVIGKQTVRLSWGRNPANKQPRDKYGNQWVDPYYGGQFYNGYGYMVPQPDPRMYPAAPYYPMYGGHQQQVS
B5: CLuc-LIF2 (protein, UniProt Q9ASP6 1-495)
chain: MSDARDNDDRVDFEEGSYSEMEDEVEEEQVEEYEEEEEEDDDDDDVGNQNAEEREVEDYGDTKGGDMEDVQEEIAEDDDNHIDIETADDDEKPPSPIDDEDREKYSHLLSLPPHGSEVFIGGLPRDVGEEDLRDLCEEIGEIFEVRLMKDRDSGDSKGYAFVAFKTKDVAQKAIEELHSKEFKGKTIRCSLSETKNRLFIGNIPKNWTEDEFRKVIEDVGPGVENIELIKDPTNTTRNRGFAFVLYYNNACADYSRQKMIDSNFKLEGNAPTVTWADPKSSPEHSAAAAQVKALYVKNIPENTSTEQLKELFQRHGEVTKIVTPPGKGGKRDFGFVHYAERSSALKAVKDTERYEVNGQPLEVVLAKPQAERKHDPSSYSYGAAPTPAPFVHPTFGGFAAAPYGAMGAGLGIAGSFSQPMIYGRGAMPTGMQMVPMLLPDGRVGYVLQQPGMPMAAAPPQRPRRNDRNNGSSGGSGRDNSHEHDGNRGGRRYRPY
B6: CLuc-RBP45A (protein, UniProt Q9FPJ8 1-387)
chain: MQQPPSNAAGAGQIPSGQQHLWMMMQQQQQQQQMQLSAAPLGQHQYGIGSQNPGSASDVKSLWIGDLQQWMDENYIMSVFAQSGEATSAKVIRNKLTGQSEGYGFIEFVSHSVAERVLQTYNGAPMPSTEQTFRLNWAQAGAGEKRFQTEGPDHTIFVGDLAPEVTDYMLSDTFKNVYGSVKGAKVVLDRTTGRSKGYGFVRFADENEQMRAMTEMNGQYCSTRPMRIGPAANKNALPMQPAMYQNTQGANAGDNDPNNTTIFVGGLDANVTDDELKSIFGQFGELLHVKIPPGKRCGFVQYANKASAEHALSVLNGTQLGGQSIRLSWGRSPNKQSDQAQWNGGGYYGYPPQPQGGYGYAAQPPTQDPNAYYGGYTGYGNYQQQRQ
B7: CLuc-BTF3 (protein, UniProt Q9SMW7 1-165)
chain: MNREKLMKMANTVRTGGKGTVRRKKKAVHKTNTTDDKRLQSTLKRIGVNSIPAIEEVNIFKDDVVIQFINPKVQASIAANTWVVSGSPQTKKLQDILPQIISQLGPDNMDNLKKLAEQFQKQASGEGNAASATIQEEDDDDVPELVGETFETAAEEKAPAAAASS
B8: CLuc-MED8 (protein, UniProt Q4V3C1 1-524)
chain: METQPQQPPPPPVAEKLNPKLEKELNLESLKTRAVSLAKAIARILEDFDAYGRTNTTPKWQDILGQYSMVNLELFNIVEEVKRVSNAFVVLPKNVNAMNAAILPVMLSSKLLPEMETDDNAKREQLLQGVQSLPIPMQIERLKARMDMIAAACENAERVLADTRKAYGFGTRQGPSMLPTMDKGQAAKIQEQEKMLRDAVNDGKGTQLPPDQRQITTALPPHLADVLIINDAGKIALPGQSNNINNQGMMQVSGTQFVGRSAASPSGPNFDNTTSPLPYSNSPRATGMVNVPSPQHQIQQQQFQQQQQRSKLMQLPQHQQQQLLAQQQQQLRQSSMQGLGQSQIPALHDMHGQAQQKFQTSHGQHQMPYSQPMGAHQQFQARQLSGGHIQHSMSQGQLNPAMNRHLNQFSGGANSALFTSAQGSPSSQMIPNMSSMQSQTLVPRMQQFGVSGTNPQRSHSSQMLGDQMFNTSGMMQTQQTQIQQSQQQQQQQQQGGYGNMQTNQQSLQPNNMMQNAQQRHQNPQ
B9: CLuc-RAD23C (protein, UniProt Q84L31 1-419)
chain: MKIFVKTLKGTHFEIEVKPEDSVVDVKKNIESVQGADVYPAAKQMLIHQGKVLKDETTIEENKVAENSFIVIMMNKSKPASAAASSASAGTSQAKSIPPSTSQPSISPQTPASVSAPVAPAPTRPPPPAPTPTPAPVAATETVTTPIPEPVPATISSSTPAPDSAPVGSQGDVYGQAASNLAAGSNLESTIQQILDMGGGTWDRETVVLALRAAFNNPERAVEYLYTGIPEQAEVPPVARPPASAGQPANPPAQTQQPAAAPASGPNANPLDLFPQGLPNVGGNPGAGTLDFLRNSQQFQALRAMVQANPQVLQPMLQELGKQNPNLMRLIQDHQADFLRLINEPVEGGGESGNLLGQMAAGMPQPQAIQVTHEEREAIERLEAMGFERALVLEVFFACNKNEELAANYLLDHMHEFEE
B10: CLuc-RAD51D (protein, UniProt Q9LQQ2 1-322)
chain: MAPLKHLEKENPIIDACFQDFCASHGILTIEDFLLHDLYELTAFSQRQTNADRLKEGITLILSLIERQCRPLVNGLKLLEDLHRNKHTLSTGDKETDSLLQGGFREGQLTELVGPSSSGKTQFCMQAAASVAENHLGRVLYLDTGNSFSARRIAQFICSSSDATLGQKVMSRILCHTVYDIYTLFDTLQDLEITLRLQMNVNESRLRLLVVDSISSLITPILGGSGSQGRALMVAIGYLLKKLAHEHSIAILVTNHTVGAGGEGGKTKPALGETWKSIPHVRLSLSRDHKNSNCTISILKHTSLPSGQAAKTLTRKENQQCP
B11: CLuc-NRP1 (protein, UniProt Q9CA59 1-256)
chain: MVADKSKKSKIEEKGEEENLEQIDAELVLSIEKLQEIQDDLEKINEKASDEVLEVEQKYNVIRKPVYDKRNEVIQSIPGFWMTAFLSHPALGDLLTEEDQKIFKYLNSLEVEDAKDVKSGYSITFHFTSNPFFEDAKLTKTFTFLEEGTTKITATPIKWKEGKGLPNGVNHDDKKGNKRALPEESFFTWFTDAQHKEDAGDEIHDEVADIIKEDLWSNPLTYFNNDADEEDFDGDDDGDEEGEEDDDDEEEEDGEE

Target: T1, EMB1579-NLuc (Arabidopsis thaliana)
Assay: split reporter; firefly split luciferase complementation imaging; NLuc and CLuc fusions co-infiltrated by Agrobacterium into N. benthamiana leaves, 60 hours, 1 mM D-luciferin

binding, binds:
B1
B2
B3
B4
B5
B6
B7
B8
B9
B10
B11
